{"source": "the supplement of paper PMC5949888", "note": "Most values lie at the floor of the assay. Slopes are relative: functional sequences can read slightly below zero."}
{"test_system": "Saccharomyces cerevisiae PS128 hsf1 delta, HSF1(1-493) fusion", "assay": "growth estimate (transactivation domain function in HSF1 fusion, heat-shock survival) (a.u. (slope of normalised read count over time)); higher = stronger growth at 37°C, i.e. more transactivation activity", "conditions": "library: random library"}
{"substance": "RGCAHRMKKLRFRRVEG", "growth estimate": "< -0.25"}
{"substance": "RGCITT", "growth estimate": "< -0.25"}
{"substance": "RGCQVLYTNKAP", "growth estimate": "< -0.25"}
{"substance": "RGDANLNLVADLYQKRDWLV", "growth estimate": "< -0.25"}
{"substance": "RGDASPHRVVSGLPRVGVRH", "growth estimate": "< -0.25"}
{"substance": "RGDHCLFHGYEASAVSPSSS", "growth estimate": "< -0.25"}
{"substance": "RGDLGASEGQSNRDAYAIAP", "growth estimate": "< -0.25"}
{"substance": "RGDPHVTRL", "growth estimate": "< -0.25"}
{"substance": "RGECGSIRCVQPYMAIPWVG", "growth estimate": "< -0.25"}
{"substance": "RGEFAGKWGYPVTGQGPQIG", "growth estimate": "< -0.25"}
{"substance": "RGEFMKLACNPFFHKVAACS", "growth estimate": "< -0.25"}
{"substance": "RGEMVPAICN", "growth estimate": "< -0.25"}
{"substance": "RGESRHLLLLIAVNAFRAAR", "growth estimate": "< -0.25"}
{"substance": "RGEYDYGGESTEQ", "growth estimate": "< -0.25"}
{"substance": "RGFSCVVCCGWIARLSVILP", "growth estimate": "< -0.25"}
{"substance": "RGGLANTRKECATSRTRILP", "growth estimate": "< -0.25"}
{"substance": "RGGNGRGVMPIGY", "growth estimate": -0.246}
{"substance": "RGGTGGLCTHFHRVGGDLDP", "growth estimate": "< -0.25"}
{"substance": "RGHGAVYCPPARAEGLSTTS", "growth estimate": "< -0.25"}
{"substance": "RGIDMRGNETTQKLRPPSRE", "growth estimate": "< -0.25"}
{"substance": "RGIGLSFWLGACRDISWHGV", "growth estimate": "< -0.25"}
{"substance": "RGILPGWFLALNVCMSAVMW", "growth estimate": "< -0.25"}
{"substance": "RGIMGFKVGGMQAYGITFGS", "growth estimate": "< -0.25"}
{"substance": "RGIRSRGEMPSDPGGY", "growth estimate": "< -0.25"}
{"substance": "RGIRVIPLAM", "growth estimate": "< -0.25"}
{"substance": "RGIVDASQLADIIQSCVGPA", "growth estimate": "< -0.25"}
{"substance": "RGKYPRDRLAHAYSEGTERW", "growth estimate": "< -0.25"}
{"substance": "RGLCKAVVKAASI", "growth estimate": "< -0.25"}
{"substance": "RGLLVPREGVEGQW", "growth estimate": "< -0.25"}
{"substance": "RGLNKGAVSRWKKILRYLSL", "growth estimate": "< -0.25"}
{"substance": "RGLRGFLWNARNWASFCLTA", "growth estimate": "< -0.25"}
{"substance": "RGNCLQDILDTSHVQN", "growth estimate": "< -0.25"}
{"substance": "RGNFMGWYFGSESETWILCG", "growth estimate": "< -0.25"}
{"substance": "RGNGGT", "growth estimate": "< -0.25"}
{"substance": "RGPGTSKAEERSVGVEAASL", "growth estimate": "< -0.25"}
{"substance": "RGQQGT", "growth estimate": "< -0.25"}
{"substance": "RGQVPFNLYKFVHHGPTAFG", "growth estimate": "< -0.25"}
{"substance": "RGQWQCLPSAAIEFHSNEGP", "growth estimate": "< -0.25"}
{"substance": "RGRRDVQEDSVRGKLTLPHG", "growth estimate": "< -0.25"}
{"substance": "RGRRFLSAWQDLRPIARTTG", "growth estimate": "< -0.25"}
{"substance": "RGRRSLGTLPGQFILFIYGG", "growth estimate": "< -0.25"}
{"substance": "RGS", "growth estimate": "< -0.25"}
{"substance": "RGSNQIALIFSHQGANHTRY", "growth estimate": "< -0.25"}
{"substance": "RGSRSPLQ", "growth estimate": "< -0.25"}
{"substance": "RGSRSY", "growth estimate": "< -0.25"}
{"substance": "RGSSVTVEYENSISSEVASS", "growth estimate": "< -0.25"}
{"substance": "RGSYGVSREGVTLN", "growth estimate": "< -0.25"}
{"substance": "RGTDAEKGPSRRGNRTSRT", "growth estimate": "< -0.25"}
{"substance": "RGTFLLFRSGRSIT", "growth estimate": "< -0.25"}
{"substance": "RGTG", "growth estimate": "< -0.25"}
{"substance": "RGTGAPNHLRDPELHCVWRA", "growth estimate": "< -0.25"}
{"substance": "RGTIKIVQKVVMLRQIVQLT", "growth estimate": -0.246}
{"substance": "RGTNYRLARYDFMGRGRG", "growth estimate": "< -0.25"}
{"substance": "RGTPKGARSLVCVVTGHSA", "growth estimate": "< -0.25"}
{"substance": "RGTRNWGRDSVT", "growth estimate": "< -0.25"}
{"substance": "RGVEDLLVGLTQIIGRPV", "growth estimate": "< -0.25"}
{"substance": "RGVLY", "growth estimate": "< -0.25"}
{"substance": "RGVNRFQSPDKSVNIGTY", "growth estimate": "< -0.25"}
{"substance": "RGVQPMGTDILLRCPLTFGR", "growth estimate": "< -0.25"}
{"substance": "RGVRKSRRIRVLVNCRYAQW", "growth estimate": -0.239}
{"substance": "RGVVFHESREVC", "growth estimate": "< -0.25"}
{"substance": "RGVVHKVSV", "growth estimate": "< -0.25"}
{"substance": "RGW", "growth estimate": "< -0.25"}
{"substance": "RGYAS", "growth estimate": 0.495}
{"substance": "RGYDVTVGACQRDSRRDYRA", "growth estimate": "< -0.25"}
{"substance": "RGYHLGCIG", "growth estimate": "< -0.25"}
{"substance": "RGYIW", "growth estimate": "< -0.25"}
{"substance": "RGYRGKSRG", "growth estimate": "< -0.25"}
{"substance": "RGYSTGGAAG", "growth estimate": "< -0.25"}
{"substance": "RGYTTTC", "growth estimate": "< -0.25"}
{"substance": "RHAWMLLSAEHFTSIATCTV", "growth estimate": "< -0.25"}
{"substance": "RHDQQECGPDPGVTADPQHA", "growth estimate": "< -0.25"}
{"substance": "RHDRYGLVRFSGGEARCLGN", "growth estimate": "< -0.25"}
{"substance": "RHFRVL", "growth estimate": "< -0.25"}
{"substance": "RHGVCVLGQLVPEFGQILKQ", "growth estimate": "< -0.25"}
{"substance": "RHGVINFWRHCITVGQPFNL", "growth estimate": "< -0.25"}
{"substance": "RHHQGSYSGILVFGSRLQGE", "growth estimate": "< -0.25"}
{"substance": "RHIQSRVISFKLRAFAV", "growth estimate": "< -0.25"}
{"substance": "RHKF", "growth estimate": "< -0.25"}
{"substance": "RHKLTGDVINA", "growth estimate": "< -0.25"}
{"substance": "RHKRPSGVPGPGLDVQPGRR", "growth estimate": "< -0.25"}
{"substance": "RHKYPGLSTFPHGLVSIVIW", "growth estimate": "< -0.25"}
{"substance": "RHLGRECAVRSQRGRRFPRV", "growth estimate": "< -0.25"}
{"substance": "RHMEYHRPSASITFALTSGS", "growth estimate": "< -0.25"}
{"substance": "RHNLSEIGNGSSRTESAKR", "growth estimate": "< -0.25"}
{"substance": "RHQGEIACL", "growth estimate": "< -0.25"}
{"substance": "RHRKESGGVRLVCT", "growth estimate": "< -0.25"}
{"substance": "RHRSSGCPDAPEGWLFGAKG", "growth estimate": "< -0.25"}
{"substance": "RHSLPCDLPIGHDGKSYTMI", "growth estimate": "< -0.25"}
{"substance": "RHT", "growth estimate": "< -0.25"}
{"substance": "RHTRVIAGLKRGRDGMAVAV", "growth estimate": "< -0.25"}
{"substance": "RHVSKQPARVMLREPDPHN", "growth estimate": "< -0.25"}
{"substance": "RHWHLLVQRFPGPHACSSTT", "growth estimate": "< -0.25"}
{"substance": "RHYLSTR", "growth estimate": "< -0.25"}
{"substance": "RHYRFMC", "growth estimate": "< -0.25"}
{"substance": "RIAANSGPWWGPKVSFVSVL", "growth estimate": "< -0.25"}
{"substance": "RIAASEWDLKRCLKSAPASI", "growth estimate": "< -0.25"}
{"substance": "RIAKNLMSSGGLVA", "growth estimate": "< -0.25"}
